In paper PMC7819943, “Rice protein-binding microarrays: a tool to detect cis-acting elements near promoter regions in rice” one finds binding signal data, which are given here for 42 sequences.

Amino acid sequences for entries named in this document (tags omitted).
UniProt Q0JBA9, entry or part of it: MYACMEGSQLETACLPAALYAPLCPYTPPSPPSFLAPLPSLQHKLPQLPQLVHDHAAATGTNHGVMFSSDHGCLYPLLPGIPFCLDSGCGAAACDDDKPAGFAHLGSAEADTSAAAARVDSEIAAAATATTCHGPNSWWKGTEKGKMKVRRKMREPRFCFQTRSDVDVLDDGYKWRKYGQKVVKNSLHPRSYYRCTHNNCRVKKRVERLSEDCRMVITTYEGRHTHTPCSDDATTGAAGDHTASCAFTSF

Some of the results follow.

This test addresses OsWRKY34 (Oryza sativa, UniProt Q0JBA9 1-250). Put plainly: protein-binding microarray (RPBM); PBS, 2% BSA, 51.3 ng/ul salmon testes DNA, 50 uM zinc acetate, 200 nM TF, 25 C, 1 h; high values mean tight binding. The note with it: protein: recombinant; tags: N-terminal polyhistidine and DsRed monomer fusion (pET32a); label: CyDye5-dUTP incorporated in the synthesized complementary strand; 3' TTTTT single-stranded linker to array surface; dsDNA, one strand shown. An outline of the steps: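 Per-feature fluorescence intensity (arbitrary units), read on an Axon 4000B scanner, is the binding signal. Transcription factors carrying an N-terminal polyhistidine tag and DsRed fusion were expressed in E. coli BL21-CodonPlus and purified on Ni–NTA. A custom Agilent array, made double-stranded by primer extension with Cy5-dUTP and blocked with 2% BSA, was incubated with 200 nM protein in PBS, 2% BSA, salmon testes DNA and 50 µM zinc acetate at 25 °C for 1 h and then washed.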
In the case of “TGAACGTTTTTTTTGGGGTTATTGATGATTGAAATTTGCTCGGAGTCACCTAGTGCAG”, the binding signal was 9790 fluorescence intensity (a.u.).

For the sequence “GTTGAGGGATTACTAACTGGATGGGGTATTTCAGTAGGAACGGAGTCACCTAGTGCAG”, the binding signal is 9450 fluorescence intensity (a.u.).

As for “CTGATTTTGCAGTAGCATCTTTAGGTTGTTTTTTTCCTGACGGAGTCACCTAGTGCAG”, the binding signal was 11200 fluorescence intensity (a.u.).

“ACCACACTCCACTCCACTCCACTACTGCGCTTAGCTAATTCGGAGTCACCTAGTGCAG”: the binding signal was 10800 fluorescence intensity (a.u.).

As for “GCCCAGGGAATATTCTCTTCTTCTTCTTCTATTCCACGTCCGGAGTCACCTAGTGCAG”, the binding signal was 8180 fluorescence intensity (a.u.).

Consider “AGAGGCTGCTGTAAATCCTTCATTTTATTAAATTTATACTCGGAGTCACCTAGTGCAG”, for which the binding signal was 8710 fluorescence intensity (a.u.).

Take “AATTCATTGTGTTACTCGTTTGTTCTGTTGGCTTTTTTACCGGAGTCACCTAGTGCAG”: the binding signal is 11200 fluorescence intensity (a.u.).

“GCCTCTCCGCCCACCGCCGCCCATCGCCGCTCTGCCTGCACGGAGTCACCTAGTGCAG”: the binding signal is 10500 fluorescence intensity (a.u.).

With “GGGTCCGGTTTTCCTTATAAACTGGGTCAATTCTTTTTTCCGGAGTCACCTAGTGCAG”, the binding signal is 11500 fluorescence intensity (a.u.).

For the sequence “AGAGACTTTTAAAAACCTTTTTCGATTTAAATTATTCATGCGGAGTCACCTAGTGCAG”, the binding signal was 8520 fluorescence intensity (a.u.).

In the case of “ATACTCCCTCCGTTTCAAAATGTTTGACATCGTTGACTTTCGGAGTCACCTAGTGCAG”, the binding signal was 9980 fluorescence intensity (a.u.).

Take “CCCATAGCACATTCCTAGTTCTGTTATCCCGACCCGTTACCGGAGTCACCTAGTGCAG”: the binding signal is 10300 fluorescence intensity (a.u.).

As for “TGCCTAGCTATTCTACTAGCTTTGTTTCTCTCTTGGCGACCGGAGTCACCTAGTGCAG”, the binding signal is 9020 fluorescence intensity (a.u.).

As for “GCCCGATCCGTGATTTGTACACGTACTAATTTTTTCTTACCGGAGTCACCTAGTGCAG”, the binding signal was 8750 fluorescence intensity (a.u.).

As for “ATGATGTACGTGTTCAGATTTATAGTTAGGATTATTTTTTCGGAGTCACCTAGTGCAG”, the binding signal is 9720 fluorescence intensity (a.u.).

As for “GTTCTCTAGCCGCTTGTGATACTCGCAATCCTAAACCACGCGGAGTCACCTAGTGCAG”, the binding signal is 8410 fluorescence intensity (a.u.).

As to “CGCTGTGGTTGGGTTCGCATGATTAATTGTTGCATTTAAACGGAGTCACCTAGTGCAG”, the binding signal is 13400 fluorescence intensity (a.u.).

As to “AGTTGACCGCCGCCGCCGTTCCCATCCTGACCCCAACCAACGGAGTCACCTAGTGCAG”, the binding signal is 12200 fluorescence intensity (a.u.).

Regarding “CGTCTTCTTCTTCTTTGAGCTTGCTTTGCTGCACACTCTACGGAGTCACCTAGTGCAG”, the binding signal was 9330 fluorescence intensity (a.u.).

As to “CGTCATGTTATCGTCATTTTCGTGTAACGCTTCAGCGATACGGAGTCACCTAGTGCAG”, the binding signal was 9400 fluorescence intensity (a.u.).

Take “CGATTTTTATTTTTCGCCGGATGGGGTTGACTTTTTTTTACGGAGTCACCTAGTGCAG”: the binding signal was 20900 fluorescence intensity (a.u.).

Regarding “CAAATTTATGGTTGTAACGGTGTTGAATGAACGGTAGGCTCGGAGTCACCTAGTGCAG”, the binding signal is 9890 fluorescence intensity (a.u.).

For the sequence “GAGGAGGTGGGTTGGCCACGAGCGATAGAGGCCCACATGTCGGAGTCACCTAGTGCAG”, the binding signal was 8290 fluorescence intensity (a.u.).

For “CCACTGACCGGTGGGCCCCACAAAACCGCCCGCTGCACTCCGGAGTCACCTAGTGCAG”, the binding signal was 9390 fluorescence intensity (a.u.).

Turning to “ATCCCAGTATCGCACCAGCACAATCAGTATCACTCTCACTCGGAGTCACCTAGTGCAG”, the binding signal is 8450 fluorescence intensity (a.u.).

On to “GACCGCGTCACTGATTGGCCTGCCTCTCCTCGCACCGGGGCGGAGTCACCTAGTGCAG”, for which the binding signal was 9150 fluorescence intensity (a.u.).

In the case of “TTATGGAATGGGTTTTGTCTTTAGTCTATGTTTAATACTTCGGAGTCACCTAGTGCAG”, the binding signal is 9100 fluorescence intensity (a.u.).

For the sequence “GTGTCTTAAGACGTTAGGCCGCCTCTGGTTAATTCTGTAACGGAGTCACCTAGTGCAG”, the binding signal was 8090 fluorescence intensity (a.u.).

With “GCGCCGTTTATCTTTTTTTTTTCCGCTGCTTAGATCTTTACGGAGTCACCTAGTGCAG”, the binding signal was 12200 fluorescence intensity (a.u.).

For the sequence “TATAGATTTTCGTCTCCAACGCTTGACCGTCCGTTTTATTCGGAGTCACCTAGTGCAG”, the binding signal was 12800 fluorescence intensity (a.u.).

For the sequence “AGCACCTGCATGAAAATAAGCCATTGACCATTTTCAGGGGCGGAGTCACCTAGTGCAG”, the binding signal was 8220 fluorescence intensity (a.u.).

Turning to “CGTTCGTCTTAGGCCGTGTTTAGATTTTTTTTTTTGCCAACGGAGTCACCTAGTGCAG”, the binding signal is 8160 fluorescence intensity (a.u.).

Consider “ACCTTCTCGAGAACCCTAAAACCACTCTAATTACACTGTCCGGAGTCACCTAGTGCAG”, for which the binding signal was 8560 fluorescence intensity (a.u.).

With “TTTTACGTCCATATCCATACCCTTGGTTTGAACTTTTTTTCGGAGTCACCTAGTGCAG”, the binding signal was 8570 fluorescence intensity (a.u.).

As to “CACCCGCATCCATCCACACCACCCGCACGCGCAGCCGCACCGGAGTCACCTAGTGCAG”, the binding signal is 9670 fluorescence intensity (a.u.).

As to “CCACACAGCCTCTGGTCCCCAGCTGTCAGCCCGCCGCGCCCGGAGTCACCTAGTGCAG”, the binding signal is 8930 fluorescence intensity (a.u.).

“ATCCCACGTGTACGCTTAGCAAATTCACAAATCCCAACCTCGGAGTCACCTAGTGCAG”: the binding signal is 8850 fluorescence intensity (a.u.).

For “ACCCTATATGCCACATTTCCACTTGTTCTATTTGAAAGTGCGGAGTCACCTAGTGCAG”, the binding signal is 10400 fluorescence intensity (a.u.).

In the case of “CAAAAACACTCCACATATTTTTCCTTTTAGTTACGTAATTCGGAGTCACCTAGTGCAG”, the binding signal is 9500 fluorescence intensity (a.u.).

As to “TGCTTGTGTGCTTTGTTTGTCGCGTAGATTTCGGCCGTTTCGGAGTCACCTAGTGCAG”, the binding signal was 9940 fluorescence intensity (a.u.).

On to “AGTAGAATTTGGCAGGATGTTGGTTCTTTTGTAGCCCAAACGGAGTCACCTAGTGCAG”, for which the binding signal was 9800 fluorescence intensity (a.u.).

Consider “TTCTCTCTGTCTCGCTCCTTCGTTCGCTCGCTTTATCCCCCGGAGTCACCTAGTGCAG”, for which the binding signal was 12000 fluorescence intensity (a.u.).
